# Source: paper PMC3779320, “Bub3 reads phosphorylated MELT repeats to promote spindle assembly checkpoint signaling” (eLife, 2013)
# No constants are given. Whether binding was seen depends on the method and setting. Where a sequence is shown, tags or fusion partners need not be part of it.
# T1: ScBub1^289–359–Bub3 complex (S. cerevisiae) (UniProt P41695+P26449)
# T1 sequence 1: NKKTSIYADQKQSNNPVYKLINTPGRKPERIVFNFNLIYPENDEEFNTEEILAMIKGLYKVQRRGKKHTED
# T1 sequence 2: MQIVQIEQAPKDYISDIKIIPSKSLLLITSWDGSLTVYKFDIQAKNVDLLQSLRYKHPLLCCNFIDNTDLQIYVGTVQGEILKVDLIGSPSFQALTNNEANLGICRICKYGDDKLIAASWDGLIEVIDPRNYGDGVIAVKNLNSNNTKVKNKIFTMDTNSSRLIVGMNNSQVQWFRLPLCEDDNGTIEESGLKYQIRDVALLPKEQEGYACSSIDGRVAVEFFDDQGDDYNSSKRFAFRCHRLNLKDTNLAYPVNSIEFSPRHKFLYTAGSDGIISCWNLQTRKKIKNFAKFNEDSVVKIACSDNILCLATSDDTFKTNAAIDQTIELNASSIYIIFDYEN
# Biological target: T1, ScBub1^289–359–Bub3 complex (S. cerevisiae)
# Experiment: ITC; 25°C, MicroCal ITC200; 20 mM Tris pH7.5, 150 mM NaCl, 1 mM DTE; Bub1^289–359–Bub3 in the cell at 30 µM, titrated with thirty-five 2-µl injections of peptide at 400 µM; single-site binding model; both purified
binder,measurement,value
GGGPATPKKAKKL (phosphothreonine ({pTHR}) at the 6th residue of the peptide) [Histone H1-derived phosphorylated peptide],binding,no binding
